# Data taken from the supplement of paper PMC6411743.
# Amino acid sequences for entries named in this document (tags omitted). A change or cut given only in a name is not applied to a line headed by its entry.
# UniProt Q9UJJ9: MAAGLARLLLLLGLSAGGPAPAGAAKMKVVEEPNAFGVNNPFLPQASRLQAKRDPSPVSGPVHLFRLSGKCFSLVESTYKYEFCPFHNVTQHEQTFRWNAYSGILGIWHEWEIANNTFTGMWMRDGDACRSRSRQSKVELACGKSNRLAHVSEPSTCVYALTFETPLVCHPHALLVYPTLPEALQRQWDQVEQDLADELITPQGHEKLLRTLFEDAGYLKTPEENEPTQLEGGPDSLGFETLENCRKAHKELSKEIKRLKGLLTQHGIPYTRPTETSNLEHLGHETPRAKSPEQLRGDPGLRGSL
# UniProt Q9Y3D2: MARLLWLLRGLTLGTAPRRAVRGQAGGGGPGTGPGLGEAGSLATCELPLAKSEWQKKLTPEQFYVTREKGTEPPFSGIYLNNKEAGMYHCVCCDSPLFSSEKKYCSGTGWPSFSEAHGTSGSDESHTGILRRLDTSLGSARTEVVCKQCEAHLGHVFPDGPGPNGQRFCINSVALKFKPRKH
# UniProt Q9Y2X9: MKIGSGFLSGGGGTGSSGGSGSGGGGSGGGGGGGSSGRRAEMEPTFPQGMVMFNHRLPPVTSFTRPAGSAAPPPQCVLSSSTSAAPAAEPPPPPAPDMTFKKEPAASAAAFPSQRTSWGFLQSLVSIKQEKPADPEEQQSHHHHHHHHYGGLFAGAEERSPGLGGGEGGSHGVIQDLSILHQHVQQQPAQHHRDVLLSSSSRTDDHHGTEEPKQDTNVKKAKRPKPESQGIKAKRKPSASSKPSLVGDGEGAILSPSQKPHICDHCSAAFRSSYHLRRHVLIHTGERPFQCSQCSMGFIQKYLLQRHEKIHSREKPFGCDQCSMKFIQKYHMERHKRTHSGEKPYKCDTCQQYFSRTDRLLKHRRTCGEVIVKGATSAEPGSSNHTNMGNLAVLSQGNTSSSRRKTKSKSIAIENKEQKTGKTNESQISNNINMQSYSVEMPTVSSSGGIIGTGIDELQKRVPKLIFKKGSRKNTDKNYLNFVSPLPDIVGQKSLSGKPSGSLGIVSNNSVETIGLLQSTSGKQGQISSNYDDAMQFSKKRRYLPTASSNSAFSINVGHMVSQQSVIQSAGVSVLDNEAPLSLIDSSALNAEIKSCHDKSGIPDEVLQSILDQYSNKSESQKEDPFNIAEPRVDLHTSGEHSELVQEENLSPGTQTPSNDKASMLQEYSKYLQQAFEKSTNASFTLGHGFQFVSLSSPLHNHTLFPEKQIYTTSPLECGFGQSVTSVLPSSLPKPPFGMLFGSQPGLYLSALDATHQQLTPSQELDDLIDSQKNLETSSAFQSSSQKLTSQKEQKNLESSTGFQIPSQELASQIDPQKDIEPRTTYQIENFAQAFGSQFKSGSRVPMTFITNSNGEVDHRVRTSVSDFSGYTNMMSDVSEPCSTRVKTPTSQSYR
# UniProt Q9UG22: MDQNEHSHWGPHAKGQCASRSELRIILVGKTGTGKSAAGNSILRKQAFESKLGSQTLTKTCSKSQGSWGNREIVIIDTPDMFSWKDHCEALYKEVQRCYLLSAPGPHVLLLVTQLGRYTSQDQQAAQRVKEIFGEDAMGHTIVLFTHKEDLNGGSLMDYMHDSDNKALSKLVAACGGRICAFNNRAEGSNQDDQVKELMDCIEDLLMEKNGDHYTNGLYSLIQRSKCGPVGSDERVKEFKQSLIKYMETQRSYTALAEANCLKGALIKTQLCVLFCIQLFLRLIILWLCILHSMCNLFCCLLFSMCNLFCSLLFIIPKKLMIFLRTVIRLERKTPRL
# UniProt Q9UIC8: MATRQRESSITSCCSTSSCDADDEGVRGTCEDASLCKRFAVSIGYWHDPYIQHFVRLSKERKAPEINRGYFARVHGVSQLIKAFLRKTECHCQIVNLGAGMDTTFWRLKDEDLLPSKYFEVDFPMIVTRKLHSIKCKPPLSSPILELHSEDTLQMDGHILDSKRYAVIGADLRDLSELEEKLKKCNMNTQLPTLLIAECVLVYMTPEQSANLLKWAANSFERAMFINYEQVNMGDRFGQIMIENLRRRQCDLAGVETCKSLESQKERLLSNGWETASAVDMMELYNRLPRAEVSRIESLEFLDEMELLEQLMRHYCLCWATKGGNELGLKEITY
# UniProt Q9UKA4: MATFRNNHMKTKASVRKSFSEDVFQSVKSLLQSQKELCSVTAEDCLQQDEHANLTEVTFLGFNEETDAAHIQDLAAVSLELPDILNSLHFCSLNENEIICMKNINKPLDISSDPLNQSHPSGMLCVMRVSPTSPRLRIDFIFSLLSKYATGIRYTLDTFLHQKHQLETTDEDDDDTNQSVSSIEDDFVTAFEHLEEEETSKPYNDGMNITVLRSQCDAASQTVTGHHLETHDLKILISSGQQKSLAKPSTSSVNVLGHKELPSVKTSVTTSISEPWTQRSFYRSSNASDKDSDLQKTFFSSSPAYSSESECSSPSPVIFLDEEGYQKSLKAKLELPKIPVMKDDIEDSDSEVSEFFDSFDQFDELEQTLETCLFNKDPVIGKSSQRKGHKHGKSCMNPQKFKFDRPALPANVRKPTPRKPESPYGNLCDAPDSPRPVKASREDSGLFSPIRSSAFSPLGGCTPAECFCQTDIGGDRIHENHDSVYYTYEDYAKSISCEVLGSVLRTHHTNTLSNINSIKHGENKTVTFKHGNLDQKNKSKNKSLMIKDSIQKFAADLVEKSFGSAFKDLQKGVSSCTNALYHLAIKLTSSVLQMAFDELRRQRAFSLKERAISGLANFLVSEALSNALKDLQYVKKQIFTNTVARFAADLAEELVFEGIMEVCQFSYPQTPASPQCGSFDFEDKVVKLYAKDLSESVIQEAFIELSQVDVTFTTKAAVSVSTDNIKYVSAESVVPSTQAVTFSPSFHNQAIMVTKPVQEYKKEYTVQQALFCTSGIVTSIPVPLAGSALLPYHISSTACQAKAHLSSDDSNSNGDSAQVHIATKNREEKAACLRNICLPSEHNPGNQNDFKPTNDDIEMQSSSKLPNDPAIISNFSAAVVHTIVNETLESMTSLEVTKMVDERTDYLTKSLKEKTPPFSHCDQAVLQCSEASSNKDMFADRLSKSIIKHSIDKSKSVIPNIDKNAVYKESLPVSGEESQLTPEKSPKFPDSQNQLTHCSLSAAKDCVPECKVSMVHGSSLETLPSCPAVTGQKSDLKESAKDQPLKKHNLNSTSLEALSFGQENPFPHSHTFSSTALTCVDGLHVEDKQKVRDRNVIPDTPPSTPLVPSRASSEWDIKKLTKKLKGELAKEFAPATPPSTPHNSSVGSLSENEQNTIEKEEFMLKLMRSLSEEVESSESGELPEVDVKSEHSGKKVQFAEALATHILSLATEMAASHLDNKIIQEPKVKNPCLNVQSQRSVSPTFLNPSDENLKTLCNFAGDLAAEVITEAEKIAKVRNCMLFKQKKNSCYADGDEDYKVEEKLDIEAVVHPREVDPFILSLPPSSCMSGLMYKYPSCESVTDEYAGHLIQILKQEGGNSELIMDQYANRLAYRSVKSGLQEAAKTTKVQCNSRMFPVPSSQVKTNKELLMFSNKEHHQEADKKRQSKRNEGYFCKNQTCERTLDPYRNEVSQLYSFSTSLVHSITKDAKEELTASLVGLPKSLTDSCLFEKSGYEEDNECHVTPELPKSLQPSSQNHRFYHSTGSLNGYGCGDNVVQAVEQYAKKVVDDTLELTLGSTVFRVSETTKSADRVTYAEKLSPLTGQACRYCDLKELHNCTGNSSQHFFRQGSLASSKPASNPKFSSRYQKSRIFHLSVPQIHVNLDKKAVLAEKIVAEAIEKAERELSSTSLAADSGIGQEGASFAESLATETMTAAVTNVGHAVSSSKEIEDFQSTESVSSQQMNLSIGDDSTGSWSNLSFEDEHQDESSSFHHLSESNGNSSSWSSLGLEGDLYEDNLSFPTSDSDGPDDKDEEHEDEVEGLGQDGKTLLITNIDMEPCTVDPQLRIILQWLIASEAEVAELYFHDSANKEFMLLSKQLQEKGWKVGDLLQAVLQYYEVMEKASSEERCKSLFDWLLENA
# UniProt Q9UKF6: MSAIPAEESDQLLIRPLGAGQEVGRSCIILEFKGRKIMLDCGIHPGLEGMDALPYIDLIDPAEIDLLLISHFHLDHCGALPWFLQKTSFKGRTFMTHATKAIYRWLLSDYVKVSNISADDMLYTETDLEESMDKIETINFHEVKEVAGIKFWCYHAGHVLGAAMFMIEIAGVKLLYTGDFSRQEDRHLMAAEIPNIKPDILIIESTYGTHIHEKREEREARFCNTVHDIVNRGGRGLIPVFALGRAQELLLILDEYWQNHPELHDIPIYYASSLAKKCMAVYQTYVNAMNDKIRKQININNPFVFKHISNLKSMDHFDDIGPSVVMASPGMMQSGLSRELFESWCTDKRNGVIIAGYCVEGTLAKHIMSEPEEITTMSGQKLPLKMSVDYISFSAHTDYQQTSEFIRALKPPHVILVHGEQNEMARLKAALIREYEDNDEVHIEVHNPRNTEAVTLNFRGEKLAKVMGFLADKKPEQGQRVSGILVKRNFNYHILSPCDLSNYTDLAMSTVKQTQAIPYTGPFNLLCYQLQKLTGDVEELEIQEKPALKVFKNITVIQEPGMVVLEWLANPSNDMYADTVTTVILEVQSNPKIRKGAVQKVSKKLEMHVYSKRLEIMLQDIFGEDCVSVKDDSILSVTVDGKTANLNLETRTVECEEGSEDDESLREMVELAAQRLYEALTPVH
# UniProt Q9ULH0: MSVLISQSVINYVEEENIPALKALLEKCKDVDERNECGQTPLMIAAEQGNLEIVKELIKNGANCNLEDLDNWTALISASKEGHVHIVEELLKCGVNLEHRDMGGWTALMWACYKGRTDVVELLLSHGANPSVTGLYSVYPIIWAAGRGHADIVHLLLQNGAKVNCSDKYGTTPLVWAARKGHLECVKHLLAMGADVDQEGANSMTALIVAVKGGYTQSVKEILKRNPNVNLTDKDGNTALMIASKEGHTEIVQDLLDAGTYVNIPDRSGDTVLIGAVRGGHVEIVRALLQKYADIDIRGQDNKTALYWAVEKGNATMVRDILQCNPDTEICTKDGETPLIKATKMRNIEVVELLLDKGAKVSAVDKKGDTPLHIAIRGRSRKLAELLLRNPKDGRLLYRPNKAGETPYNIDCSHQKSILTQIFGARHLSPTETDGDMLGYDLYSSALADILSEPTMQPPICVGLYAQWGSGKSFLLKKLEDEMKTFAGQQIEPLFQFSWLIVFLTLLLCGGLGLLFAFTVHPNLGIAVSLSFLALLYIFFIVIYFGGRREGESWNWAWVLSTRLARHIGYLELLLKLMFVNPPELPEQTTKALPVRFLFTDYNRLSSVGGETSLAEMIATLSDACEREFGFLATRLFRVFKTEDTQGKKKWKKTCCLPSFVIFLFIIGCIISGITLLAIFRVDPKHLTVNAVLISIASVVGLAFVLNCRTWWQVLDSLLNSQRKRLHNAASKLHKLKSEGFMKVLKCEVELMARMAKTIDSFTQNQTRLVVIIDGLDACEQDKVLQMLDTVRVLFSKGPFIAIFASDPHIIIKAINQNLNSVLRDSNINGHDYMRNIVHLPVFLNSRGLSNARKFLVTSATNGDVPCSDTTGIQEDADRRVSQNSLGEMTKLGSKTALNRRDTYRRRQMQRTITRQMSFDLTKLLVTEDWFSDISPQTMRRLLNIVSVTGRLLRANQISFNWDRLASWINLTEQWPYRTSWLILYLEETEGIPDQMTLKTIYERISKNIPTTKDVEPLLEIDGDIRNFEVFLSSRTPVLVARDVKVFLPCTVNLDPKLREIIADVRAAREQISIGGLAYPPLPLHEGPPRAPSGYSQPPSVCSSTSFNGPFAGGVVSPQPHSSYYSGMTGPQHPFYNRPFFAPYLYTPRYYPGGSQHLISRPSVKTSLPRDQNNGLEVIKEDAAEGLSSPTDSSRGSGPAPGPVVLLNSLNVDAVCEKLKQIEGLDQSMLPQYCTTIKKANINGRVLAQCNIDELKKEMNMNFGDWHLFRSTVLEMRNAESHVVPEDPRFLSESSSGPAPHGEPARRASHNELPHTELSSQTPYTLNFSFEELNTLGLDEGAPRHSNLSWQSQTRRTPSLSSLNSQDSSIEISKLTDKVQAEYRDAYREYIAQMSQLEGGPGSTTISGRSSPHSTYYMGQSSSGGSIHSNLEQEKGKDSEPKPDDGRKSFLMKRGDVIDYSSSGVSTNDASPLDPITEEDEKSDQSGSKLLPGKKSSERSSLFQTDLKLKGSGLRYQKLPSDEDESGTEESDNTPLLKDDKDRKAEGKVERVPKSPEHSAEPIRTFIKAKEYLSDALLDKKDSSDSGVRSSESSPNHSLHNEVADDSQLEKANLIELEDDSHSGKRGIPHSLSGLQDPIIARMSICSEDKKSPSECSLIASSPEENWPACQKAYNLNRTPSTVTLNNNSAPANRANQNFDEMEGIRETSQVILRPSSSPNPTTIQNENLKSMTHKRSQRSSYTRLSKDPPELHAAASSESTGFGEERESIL
# UniProt Q9Y3C8: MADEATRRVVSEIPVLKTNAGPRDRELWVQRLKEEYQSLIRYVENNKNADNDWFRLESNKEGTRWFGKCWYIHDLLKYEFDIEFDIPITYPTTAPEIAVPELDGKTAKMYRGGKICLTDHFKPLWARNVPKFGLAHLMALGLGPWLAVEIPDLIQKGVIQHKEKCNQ
# ± gives the standard deviation of the averaged measurements. This is a selection; strong and weak results do not stand in their true shares.
# Compound: Nc1ncnc2c1ncn2[C@@H]1O[C@H](COP(=O)(O)OP(=O)(O)NP(=O)(O)O)[C@@H](O)[C@H]1O [adenylyl imidodiphosphate]
# Assay: NP40-soluble protein abundance relative to vehicle (solubility fold change) (ratio); higher = more soluble protein in presence of AMP-PNP
# How it was run: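 Jurkat crude lysate (Dounce-homogenised) was treated with eight concentrations from 0.1 to 10 mM for 10 min at room temperature, then 3 min at 37 °C. It was solubilised with 0.8% NP40 and benzonase (60 min, 4 °C) and ultracentrifuged, and the supernatant was TMT-labelled for LC-MS/MS. Intensities were vsn-normalised, and the value is the fold change against the NP40-processed vehicle per replicate, from three independent experiments.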
Target,NP40-soluble protein abundance (concentration: 1mM),NP40-soluble protein abundance (concentration: 2mM),NP40-soluble protein abundance (concentration: 4mM),NP40-soluble protein abundance (concentration: 6mM),NP40-soluble protein abundance (concentration: 8mM),NP40-soluble protein abundance (concentration: 10mM)
GTF3C4 (UniProt Q9UKN8),1.01 ± 0.06,0.967 ± 0.11,1.02 ± 0.06,0.989 ± 0.031,0.999 ± 0.06,1 ± 0.032
PRPF19 (UniProt Q9UMS4),1.01 ± 0.03,0.966 ± 0.045,1.03 ± 0.049,1.15 ± 0.023,1.167 ± 0.0091,1.15 ± 0.084
GNPTG (UniProt Q9UJJ9),0.981 ± 0.015,1.02 ± 0.072,0.949 ± 0.05,0.976 ± 0.038,0.946 ± 0.029,0.973 ± 0.057
MAN1B1 (UniProt Q9UKM7),0.979 ± 0.038,0.945 ± 0.053,1 ± 0.031,1.02 ± 0.045,1.08 ± 0.041,1.084 ± 0.0033
MSRB2 (UniProt Q9Y3D2),1 ± 0.051,1.01 ± 0.039,1 ± 0.041,0.976 ± 0.016,0.973 ± 0.03,0.974 ± 0.053
UniProt Q9Y2X9 and related entries,1 ± 0.043,0.999 ± 0.033,0.973 ± 0.046,0.965 ± 0.022,0.947 ± 0.015,0.984 ± 0.026
PARP4 (UniProt Q9UKK3),0.995 ± 0.027,0.974 ± 0.0072,0.957 ± 0.015,0.99 ± 0.033,0.948 ± 0.011,0.954 ± 0.039
UniProt Q9UDT6 and related entries,1.04 ± 0.041,1.06 ± 0.011,1.08 ± 0.047,1.1 ± 0.097,1.1 ± 0.15,1.1 ± 0.12
UniProt Q9UL54-2,0.99 ± 0.026,0.992 ± 0.019,1.01 ± 0.02,1.01 ± 0.029,1.02 ± 0.042,1.01 ± 0.035
UniProt Q9UG22,1.05 ± 0.069,0.995 ± 0.077,0.973 ± 0.029,1 ± 0.035,0.985 ± 0.077,0.988 ± 0.099
UniProt Q9Y3B4,0.976 ± 0.061,0.981 ± 0.076,0.993 ± 0.019,0.968 ± 0.016,1.05 ± 0.051,1.01 ± 0.06
UniProt Q9UIC8 and related entries,0.972 ± 0.024,0.928 ± 0.063,0.962 ± 0.037,0.91 ± 0.033,0.94 ± 0.012,0.89 ± 0.026
UniProt Q9UKI8-5|Q9UKI8,0.984 ± 0.023,0.994 ± 0.028,1.01 ± 0.029,1.03 ± 0.036,1.01 ± 0.054,1.01 ± 0.056
AKAP11 (UniProt Q9UKA4),0.979 ± 0.06,0.986 ± 0.015,0.982 ± 0.036,0.984 ± 0.066,0.968 ± 0.028,0.992 ± 0.075
UniProt Q9ULL5-3,1.07 ± 0.052,1.02 ± 0.0094,1.018 ± 0.0083,1.011 ± 0.0056,1.03 ± 0.017,1.02 ± 0.018
CGGBP1 (UniProt Q9UFW8),1.03 ± 0.021,1.13 ± 0.066,1.11 ± 0.059,1.13 ± 0.033,1.134 ± 0.0091,1.15 ± 0.086
UniProt Q9UBU8 and related entries,1.1 ± 0.028,1.16 ± 0.049,1.16 ± 0.031,1.1 ± 0.023,1.12 ± 0.018,1.14 ± 0.022
APPL1 (UniProt Q9UKG1),1 ± 0.012,0.969 ± 0.051,1.01 ± 0.011,0.99 ± 0.011,0.986 ± 0.029,0.977 ± 0.013
UniProt Q9Y2S2 and related entries,0.983 ± 0.079,0.911 ± 0.074,0.984 ± 0.046,0.971 ± 0.088,1.01 ± 0.064,0.97 ± 0.076
CPSF3 (UniProt Q9UKF6),0.974 ± 0.04,0.943 ± 0.063,0.999 ± 0.063,1.03 ± 0.036,1.05 ± 0.021,1.05 ± 0.096
UniProt Q9UI08-2|G3V5F7,1.05 ± 0.014,1.05 ± 0.062,1.04 ± 0.029,0.9877 ± 0.0042,1.01 ± 0.045,0.992 ± 0.041
UniProt Q9Y3B2 and related entries,0.985 ± 0.045,1.02 ± 0.053,1.01 ± 0.077,1.13 ± 0.076,1.1 ± 0.092,1.12 ± 0.14
UniProt Q9ULV4 and related entries,1.07 ± 0.04,1.11 ± 0.056,1.12 ± 0.026,1.26 ± 0.015,1.33 ± 0.018,1.39 ± 0.037
UniProt Q9ULH0 and related entries,0.996 ± 0.012,1.01 ± 0.046,1.03 ± 0.039,0.989 ± 0.041,0.993 ± 0.016,0.995 ± 0.053
MRPS28 (UniProt Q9Y2Q9),0.997 ± 0.08,1.03 ± 0.053,0.952 ± 0.063,0.936 ± 0.095,0.92 ± 0.073,0.93 ± 0.11
UFC1 (UniProt Q9Y3C8),0.953 ± 0.062,1.03 ± 0.037,0.951 ± 0.058,0.95 ± 0.06,0.934 ± 0.046,0.886 ± 0.095
UniProt Q9UI12 and related entries,1.02 ± 0.02,0.986 ± 0.012,0.978 ± 0.013,0.987 ± 0.01,0.973 ± 0.014,0.9838 ± 0.0093
UniProt Q9UI30,0.961 ± 0.065,0.947 ± 0.029,0.92 ± 0.045,0.929 ± 0.079,0.943 ± 0.052,0.891 ± 0.098
UniProt Q9Y2I1 and related entries,0.984 ± 0.021,0.99 ± 0.014,0.973 ± 0.026,0.951 ± 0.012,0.921 ± 0.01,0.948 ± 0.029
UniProt Q9UMS0 and related entries,1.04 ± 0.047,1.07 ± 0.037,1.01 ± 0.048,1.02 ± 0.033,0.992 ± 0.048,0.987 ± 0.079

# Part of the list above, tab-delimited.
Target	NP40-soluble protein abundance (concentration: 1mM)	NP40-soluble protein abundance (concentration: 2mM)	NP40-soluble protein abundance (concentration: 4mM)	NP40-soluble protein abundance (concentration: 6mM)	NP40-soluble protein abundance (concentration: 8mM)	NP40-soluble protein abundance (concentration: 10mM)
MSRB2 (UniProt Q9Y3D2)	1 ± 0.051	1.01 ± 0.039	1 ± 0.041	0.976 ± 0.016	0.973 ± 0.03	0.974 ± 0.053
UniProt Q9Y2X9 and related entries	1 ± 0.043	0.999 ± 0.033	0.973 ± 0.046	0.965 ± 0.022	0.947 ± 0.015	0.984 ± 0.026
PARP4 (UniProt Q9UKK3)	0.995 ± 0.027	0.974 ± 0.0072	0.957 ± 0.015	0.99 ± 0.033	0.948 ± 0.011	0.954 ± 0.039
UniProt Q9UDT6 and related entries	1.04 ± 0.041	1.06 ± 0.011	1.08 ± 0.047	1.1 ± 0.097	1.1 ± 0.15	1.1 ± 0.12
UniProt Q9UL54-2	0.99 ± 0.026	0.992 ± 0.019	1.01 ± 0.02	1.01 ± 0.029	1.02 ± 0.042	1.01 ± 0.035
